Among all 130,000 compounds or so, about 1,000 (0.77%) were called active. This list was built around the results that the source calls inconclusive (neither active nor inactive); the mix of calls is not that of the screen.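 How the source made its calls: active means activation at 2 µM above a set limit, confirmed on inspection of the cell images; inconclusive means above the set limit but not confirmed on image inspection; inactive means the rest.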
assay: activators of insulin promoter-driven GFP, primary screen, imaging, TRM-6 cells, eGFP reporter, cell count (AID 1296); conditions: at 2 µM, active compounds read high, plate-scaled: unstimulated 0, stimulated control 100;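 further: share of cells whose green reporter signal exceeds an intensity cutoff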
Method in brief: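 System: human fetal islet-derived TRM-6 cells with tamoxifen-inducible insulin promoter–eGFP reporter; input: seeding density of 1,000 cells per well; buffer or medium: Low-glucose (5.5 mM) medium with tamoxifen; incubation: compound exposure 48 h, 37 °C; measured by: high-content imaging of fixed cells with Hoechst nuclear stain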

SMILES | activation
COC(=O)c1cn(NC(=O)c2ccc(OC)c(OC)c2)c(=O)c2ccccc12 | inactive: 6.82%
O=C(CN(C1CCCCC1)S(=O)(=O)c1ccccc1)NCc1ccco1 | inconclusive: 419%
CCOC(=O)Oc1ccc(C(=O)OCCCN(C)C)cc1OC | inconclusive: 354%
CCCCN(C(=O)CCC(=O)Nc1cc(C)on1)C(C(=O)NC(C)(C)C)c1cccc(OC)c1OC (stereo not drawn) | inconclusive: 500%
C=CCN1CCN(c2ccncc2S(=O)(=O)N2CCOCC2)CC1 | inactive: -5.08%
C=CCn1c(SCc2c(C)noc2C)nc2ccccc2c1=O | inconclusive: 134% [cytotoxic]
CCOC(=O)C1=C(C)C(c2ccccc2O)NC(=O)N1 (stereo not drawn) | inactive: 0%
CCOc1ccc(S(=O)(=O)n2nnc3ccccc32)cc1C(C)C | inconclusive: 400%
Cc1c(CCO)c(=O)n(-c2ccccc2)n1S(=O)(=O)c1ccc(F)cc1 | inconclusive: 75%
O=S(=O)(Nc1cc(Sc2ncn[nH]2)c(O)c2ccccc12)c1ccccc1 | inconclusive: 233%
Cc1ccc(CNC(=O)CSc2nnnn2C)cc1 | inconclusive: 117%
COc1ccc(OC)c(C2C3CN(C(C)C)CC=C3C(C#N)=C(N)C2(C#N)C#N)c1 (stereo not drawn) | active: 479%
Cc1ccc[n+](/C(C(=S)NCc2ccco2)=C(/[O-])c2ccccc2Cl)c1 | inactive: 287%
O=C(CN1C(=O)CCC1=O)NNc1ccc2ccccc2c1 | inconclusive: 112%
NC1=NC2(CCCCC2)n2c(nc3ccccc32)N1 | inconclusive: 84.8%
CN(C)CCNC(=O)C12CC3(C)CC(C)(CC(C)(C3)C1)C2 | inactive: -5.08%
CC(CN1CCCCC1)OC(=O)c1cc2ccccc2o1 (stereo not drawn) | inactive: 0%
Cn1cc(/C=N/n2cnc3scc(-c4ccc(Cl)cc4)c3c2=O)c2ccccc21 | inconclusive: 194% [cytotoxic]
Cc1nc2cc(C(F)(F)F)ccc2n1C | inactive: -75%
Cc1nc(SCC(=O)NC(=O)NC(C)C)nc(C)c1C | inactive: 5.88%
COc1ccc(S(=O)(=O)Nc2cc3c4c(oc3c3ccccc23)CC(C)(C)CC4=O)cc1 | active: 86.8%
O=c1cc(CS(=O)(=O)c2ccccc2)nc(-c2ccncc2)[nH]1 | active: 331%
C#CCOC(=O)Nc1ccc(=O)n(Cc2c(Cl)cccc2Cl)c1 | inconclusive: 229%
C=C(C)CSc1nnc(-c2cc(OC)c(OC)c(OC)c2)n1N | inactive: -3.23%

SMILES | activation
Cc1ccccc1NS(=O)(=O)c1ccc(OCC(=O)N2CCCC2)cc1 | inconclusive: 431%
O=C(CN1C2CCCC1CC(NC(=O)c1ccco1)C2)Nc1ccccc1 (stereo not drawn) | inconclusive: 103%
N#CCCn1nnc(-c2ccccc2F)n1 | inconclusive: 219%
CNc1nc(C)nc(-n2nc(C)cc2C)n1 | active: 660%
Cc1cc(C(=O)N2CCN(CCc3ccccc3)CC2)no1 | inconclusive: 458%
O=C(NCC1CC1)[C@@H]1C[C@H]1[C@@H](NP(=O)(c1ccccc1)c1ccccc1)c1ccccc1 | inconclusive: 250%
CCOCCCNc1ncc2c(n1)CC(c1ccc(C)cc1)CC2=O (stereo not drawn) | inconclusive: 164%
CCOC(=O)c1c(NC(=O)c2ccoc2C)sc2c1CCC2 | inconclusive: 536%
CC1CCCCN1CCCNC(=O)c1ccc2c(=O)n(CCc3ccccc3)c(=O)[nH]c2c1 (stereo not drawn) | inactive: 0%
Cc1ccccc1N(CC(=O)N/N=C/c1ccc(N(C)C)cc1)C(=O)c1ccccc1 | inactive: -2.7%
CCn1c(C)c(C(C)=O)c(N2CCN(c3ccc(F)cc3)CC2)nc1=S | inconclusive: 443%
CCC1=Nc2cc(C(=O)NCCCOC(C)C)ccc2Sc2ccccc21 | active: 110%
Cc1nc2scc(-c3ccccc3)c2c(=O)n1N=C1C=CC(=O)C=C1 | inconclusive: 344% [cytotoxic]
O=C(O)CCC(=O)N1CCN(c2cccc(Cl)c2)CC1 | active: 467%
Cc1ccn2c(NC3CCCCC3)c(C(C)C)nc2c1 | inconclusive: 515%
CC1CCCCN1C(=O)Cn1cc(C#N)c2ccccc21 (stereo not drawn) | inconclusive: 462%
COc1ccc(/C=C/C(=O)N(C)C2CCS(=O)(=O)C2)cc1OC (stereo not drawn) | inactive: 0%
COc1ccc(CN=C2NN=C(c3ccccc3)CS2)cc1 | inconclusive: 258%
Cc1ccc(C(=O)c2ccc([N+](=O)[O-])cc2)c(C)c1 | inconclusive: 514%
CCOC(=O)C(CSCC(=O)c1ccc(Cl)cc1)NC(=O)OC(C)(C)C (stereo not drawn) | inconclusive: 407%
CCOC(=O)c1c(-c2ccncc2)csc1N | active: 460%
CN(Cc1ccccc1)Cc1nc2c([nH]1)c(=O)n(C)c(=O)n2C | active: 105%
Cc1nnc(SCC(=O)NC2CCCCC2)s1 | inactive: 0%
Clc1ccc(OCCCc2nc(-c3ccncc3)no2)c(Cl)c1 | inconclusive: 94.1%

SMILES | activation
O=CNC(Cc1ccccc1)C(=O)O (stereo not drawn) | inactive: -6.85%
CCOC(=O)N1CCN(Cc2c(F)cccc2F)CC1 | inactive: 0%
COc1ccc2c(c1)c1ncn(CCCN3CCOCC3)c(=O)c1n2C | inconclusive: 400%
N#Cc1c(C(F)(F)F)cc(C2CC2)nc1N1CCCC1 | inconclusive: 75.6%
CCCS(=O)(=O)N1CCN=C1SCc1cccc2ccccc12 | inactive: 7.69%
COCc1cc(C)nc(Nc2ccccc2C)c1C#N | active: 408%
CN1/C(=C\C(=O)C[n+]2ccc3ccccc3c2)C(C)(C)c2ccccc21 | inconclusive: 407%
Cc1ccc(NC(=S)NCc2cccs2)c(C)c1 | inactive: 0%
COc1ccc(CC(=O)N2CCN=C2SCc2cccc([N+](=O)[O-])c2)cc1 | inconclusive: 217%
O=C(N/C(=C\c1ccc([N+](=O)[O-])cc1)C(=O)N1CCCCC1)c1ccccc1Br | inactive: 8.33%
Cc1cccc(C)c1NC(=O)C1(NC(=O)C2CCCN2C(=O)OC(C)(C)C)CCCCC1 (stereo not drawn) | active: 171%
CNc1nc(N/N=C/c2ccc([N+](=O)[O-])cc2)nc(Nc2ccccc2)n1 | inactive: 0%
COc1cc(C=O)c(Br)cc1OCc1ccc(C)cc1 | inconclusive: 177% [cytotoxic]
Cc1cc(C)n2nc(-c3cnn(C)c3C(F)(F)F)c(Cl)c2n1 | inactive: 123%
CC(Sc1ccc(Cl)cc1)C(=O)NCc1ccc2c(c1)OCO2 (stereo not drawn) | inactive: -3.57%
O=C(Cn1ncc(Cl)c(Cl)c1=O)NCC1CCCCC1 | inconclusive: 212% [cytotoxic]
COc1cc(/C=N\NC(=O)c2ccc(Cn3cc(Br)c([N+](=O)[O-])n3)o2)cc(OC)c1O | inactive: 0%
COc1ccc(Cl)cc1C(=O)N1CCN=C1SC | inconclusive: 210%
C/C(=N\OC(=O)c1ccc(Cl)cc1)c1nccs1 | inconclusive: 213%
O=C(Nc1ccccc1C(=O)N/N=C/c1ccncc1)c1ccccc1 | inactive: 5.56%
CC(=O)c1cccc(NS(=O)(=O)c2ccc(N/C=C/C(=O)c3ccc(F)cc3)cc2)c1 | inconclusive: 222%
Cc1ccc(-c2nnc(NCc3nc4ccccc4[nH]3)c3ccccc23)cc1S(=O)(=O)N1CCOCC1 | inconclusive: 203%
COC(=O)c1sccc1-n1cccc1C(=O)NCc1ccccc1 | inactive: -9.09%
O=C(Nc1cc(S(=O)(=O)N2CCCCC2)ccc1Cl)c1ccccc1NS(=O)(=O)c1ccc(F)cc1 | active: 525%

An excerpt from above in order of length of the SMILES, rising.
SMILES | activation
CCOC(=O)c1c(NC(=O)c2ccoc2C)sc2c1CCC2 | inconclusive: 536%
Cc1cc(C)n2nc(-c3cnn(C)c3C(F)(F)F)c(Cl)c2n1 | inactive: 123%
O=C(N/C(=C\c1ccc([N+](=O)[O-])cc1)C(=O)N1CCCCC1)c1ccccc1Br | inactive: 8.33%

(next part)

SMILES | activation
COc1ccc(-c2nc(C)sc2CC(=O)O)cc1 | inactive: 0%
COc1ccc([N+](=O)[O-])cc1NC(=O)c1ccc(CN(c2ccccc2)S(C)(=O)=O)cc1 | inconclusive: 391%
COc1ccc(CCNC(=O)CCc2ccc(S(=O)(=O)NC(C)C)cc2)cc1 | inactive: -71.4%
CCOC(=O)N1CCN(C(=O)c2cc(-n3cnnc3)ccc2Cl)CC1 | inactive: 13.6%
CCOc1ccccc1OCCCOc1ccc([N+](=O)[O-])cc1Cl | inconclusive: 124%
Clc1ccc(OCc2nc(-c3ccncc3)no2)cc1 | inconclusive: 421%
N#CC1=C(N)C(C#N)(C#N)C(c2ccncc2)C2CN(C(=O)OCc3ccccc3)CC=C12 (stereo not drawn) | inactive: -4.76%
COc1ccc(CCNC(=O)c2ccc3c(SCC(=O)O)c4c(nc3c2)CCCC4)cc1OC | inactive: -7.14%
O=C1c2ccc([N+](=O)[O-])cc2C(=O)N1CNc1ccccn1 | inconclusive: 525%
Cc1nc(N(C)Cc2ccccc2)c2nnn(Cc3ccccc3)c2n1 | inactive: 0%
C/C(CCC(C)C)=N\NC(=O)COc1ccccc1-c1ccccc1 | inconclusive: 433% [cytotoxic]
Cc1ccc(C(=O)NCCc2nnc3ccc(SCC(=O)Nc4cc(C)on4)nn23)cc1 | inactive: -5.88%
O=C(NCC(c1cccs1)N1CCOCC1)c1ccc(Cl)s1 (stereo not drawn) | inactive: 0%
CS(=O)(=O)Nc1ccc(C(=O)N2CCCCC2)cc1 | inconclusive: 670%
CCCCCCCCc1nc(SC(C)C(=O)O)n[nH]1 (stereo not drawn) | inconclusive: 254%
COC(=O)c1ccc(NC(=O)CSc2nnc(-c3ccncc3)n2C)cc1 | inconclusive: 223%
CC(=O)c1c(C)[nH]c(C(=O)CSc2nc3ccccc3n2C)c1C | inconclusive: 94.1%
O=C1CCCc2c1cc(C(=O)O)c(=O)n2-c1ccccc1 | inconclusive: 400%
Cc1ccc(S(=O)(=O)Nc2ccccc2-c2ccccc2)cc1 | inconclusive: 132% [cytotoxic]
CCOC(=O)Nc1ccc2c(CN3C(=O)NC4(CCCC4)C3=O)cc(=O)oc2c1 | inconclusive: 650%
CC(C)CNC(=O)c1ccccc1NC(=O)CN(c1ccc2c(c1)OCCO2)S(C)(=O)=O | inconclusive: 70.6%

Looked up above:
Entry of CS(=O)(=O)Nc1ccc(C(=O)N2CCCCC2)cc1 under activation: inconclusive: 670%
Entry of Cc1cc(C)n2nc(-c3cnn(C)c3C(F)(F)F)c(Cl)c2n1 under activation: inactive: 123%
Entry of COc1cc(/C=N\NC(=O)c2ccc(Cn3cc(Br)c([N+](=O)[O-])n3)o2)cc(OC)c1O under activation: inactive: 0%

From PubChem BioAssay AID1296 (Columbia University Molecular Screening Center, 2008)
